Publication PMC10865844

Protein sequences, listed by entry. Tags and fused reporters are not part of them. Lines headed by an entry give the natural chain unless they say otherwise; changes in a name come on top.
UniProt J9VNH4: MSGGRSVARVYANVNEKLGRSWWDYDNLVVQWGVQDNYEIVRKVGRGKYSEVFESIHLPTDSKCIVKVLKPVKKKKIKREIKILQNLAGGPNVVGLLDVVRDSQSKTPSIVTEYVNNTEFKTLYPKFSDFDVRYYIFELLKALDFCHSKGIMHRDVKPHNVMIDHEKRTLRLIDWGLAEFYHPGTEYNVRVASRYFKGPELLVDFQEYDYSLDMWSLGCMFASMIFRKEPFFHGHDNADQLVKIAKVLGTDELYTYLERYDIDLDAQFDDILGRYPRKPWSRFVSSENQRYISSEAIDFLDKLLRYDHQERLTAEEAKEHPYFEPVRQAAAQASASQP
UniProt J9VQR1: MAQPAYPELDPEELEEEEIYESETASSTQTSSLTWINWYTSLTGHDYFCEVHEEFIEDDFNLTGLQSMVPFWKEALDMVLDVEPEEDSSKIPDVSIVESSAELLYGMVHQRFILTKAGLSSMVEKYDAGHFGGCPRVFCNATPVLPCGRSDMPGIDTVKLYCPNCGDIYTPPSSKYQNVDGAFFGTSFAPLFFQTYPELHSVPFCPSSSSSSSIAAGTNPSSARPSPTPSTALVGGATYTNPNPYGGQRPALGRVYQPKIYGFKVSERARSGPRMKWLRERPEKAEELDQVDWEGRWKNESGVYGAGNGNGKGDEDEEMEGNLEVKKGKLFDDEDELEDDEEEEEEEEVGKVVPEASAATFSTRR
UniProt J9VM18: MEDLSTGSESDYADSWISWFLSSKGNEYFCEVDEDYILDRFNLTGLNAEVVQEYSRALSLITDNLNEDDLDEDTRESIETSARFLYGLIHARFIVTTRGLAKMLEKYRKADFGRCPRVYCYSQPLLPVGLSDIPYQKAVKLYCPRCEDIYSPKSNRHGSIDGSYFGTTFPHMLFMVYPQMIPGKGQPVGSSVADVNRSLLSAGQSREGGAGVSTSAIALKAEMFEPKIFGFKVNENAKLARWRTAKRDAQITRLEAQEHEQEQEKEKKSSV

Experiments:
[1] = target: Cka1-4xFLAG (CK2 catalytic subunit Cka1 of Cryptococcus neoformans) (Cryptococcus neoformans) (UniProt J9VNH4); assay: co-IP; whole cell lysates of co-tagged C. neoformans strains; lysis buffer 50 mM Tris-Cl pH 7.5, 1% sodium deoxycholate, 5 mM NaF, 0.1% SDS, 1% Triton X-100; anti-FLAG antibody overnight at 4°C, protein G Sepharose 6 h, three washes; blot with anti-HA
[2] = target: Ckb1-4xFLAG (CK2 regulatory subunit Ckb1 of Cryptococcus neoformans) (Cryptococcus neoformans) (UniProt J9VQR1); assay: as above

| Substance | binding [1] | binding [2] |
| --- | --- | --- |
| Ckb1-6xHA (CK2 regulatory subunit Ckb1 of Cryptococcus neoformans) (from UniProt J9VQR1) | binds | – |
| Ckb2-6xHA (CK2 regulatory subunit Ckb2 of Cryptococcus neoformans) (from UniProt J9VM18) | binds | binds |

Results are given in words; binding and its absence hold for the method and conditions named. In cells and extracts the contact can be indirect. Binding calls can cover weak binding; strength is not graded here.
